This is one part of the list.

By UniProt entry, the sequences of proteins in these tests, tags left out. Where a name states a change or a piece, a line headed by the entry shows the natural chain unless it says otherwise.
UniProt Q9H8H3: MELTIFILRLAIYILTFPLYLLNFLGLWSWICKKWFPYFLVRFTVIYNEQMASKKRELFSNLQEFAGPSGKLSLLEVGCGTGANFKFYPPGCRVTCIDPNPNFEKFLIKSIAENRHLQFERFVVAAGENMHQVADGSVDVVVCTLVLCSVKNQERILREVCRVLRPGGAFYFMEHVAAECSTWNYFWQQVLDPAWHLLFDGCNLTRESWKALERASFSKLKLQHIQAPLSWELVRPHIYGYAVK
UniProt P33992: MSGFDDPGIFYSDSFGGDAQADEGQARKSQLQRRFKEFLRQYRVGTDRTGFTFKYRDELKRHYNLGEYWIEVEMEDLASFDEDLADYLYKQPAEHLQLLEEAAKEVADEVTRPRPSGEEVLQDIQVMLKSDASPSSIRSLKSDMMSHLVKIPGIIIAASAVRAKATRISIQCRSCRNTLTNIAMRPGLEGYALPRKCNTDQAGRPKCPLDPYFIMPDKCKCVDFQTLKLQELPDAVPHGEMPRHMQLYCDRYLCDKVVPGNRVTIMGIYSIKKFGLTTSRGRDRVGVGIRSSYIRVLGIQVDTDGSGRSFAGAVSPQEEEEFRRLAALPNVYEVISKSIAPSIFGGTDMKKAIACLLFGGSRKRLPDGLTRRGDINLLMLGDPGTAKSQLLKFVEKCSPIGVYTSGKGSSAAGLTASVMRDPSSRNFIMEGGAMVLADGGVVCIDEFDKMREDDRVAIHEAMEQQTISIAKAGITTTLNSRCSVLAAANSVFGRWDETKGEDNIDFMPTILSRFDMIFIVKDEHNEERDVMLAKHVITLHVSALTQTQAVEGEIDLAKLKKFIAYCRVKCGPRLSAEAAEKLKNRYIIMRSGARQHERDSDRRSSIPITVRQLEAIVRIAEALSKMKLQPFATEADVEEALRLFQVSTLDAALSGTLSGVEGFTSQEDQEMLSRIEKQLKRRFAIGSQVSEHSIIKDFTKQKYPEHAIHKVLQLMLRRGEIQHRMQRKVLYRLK
UniProt Q9NZL9, whole entry, looked up: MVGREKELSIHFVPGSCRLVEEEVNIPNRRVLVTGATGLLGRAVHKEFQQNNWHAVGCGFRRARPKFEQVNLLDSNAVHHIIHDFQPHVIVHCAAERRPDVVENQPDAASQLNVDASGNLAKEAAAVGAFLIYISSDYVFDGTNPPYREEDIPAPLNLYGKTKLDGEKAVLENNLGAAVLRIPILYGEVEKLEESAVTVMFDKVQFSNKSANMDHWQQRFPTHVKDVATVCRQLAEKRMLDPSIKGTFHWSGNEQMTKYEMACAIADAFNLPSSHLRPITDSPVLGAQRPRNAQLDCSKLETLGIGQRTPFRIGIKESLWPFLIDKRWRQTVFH
UniProt P25205: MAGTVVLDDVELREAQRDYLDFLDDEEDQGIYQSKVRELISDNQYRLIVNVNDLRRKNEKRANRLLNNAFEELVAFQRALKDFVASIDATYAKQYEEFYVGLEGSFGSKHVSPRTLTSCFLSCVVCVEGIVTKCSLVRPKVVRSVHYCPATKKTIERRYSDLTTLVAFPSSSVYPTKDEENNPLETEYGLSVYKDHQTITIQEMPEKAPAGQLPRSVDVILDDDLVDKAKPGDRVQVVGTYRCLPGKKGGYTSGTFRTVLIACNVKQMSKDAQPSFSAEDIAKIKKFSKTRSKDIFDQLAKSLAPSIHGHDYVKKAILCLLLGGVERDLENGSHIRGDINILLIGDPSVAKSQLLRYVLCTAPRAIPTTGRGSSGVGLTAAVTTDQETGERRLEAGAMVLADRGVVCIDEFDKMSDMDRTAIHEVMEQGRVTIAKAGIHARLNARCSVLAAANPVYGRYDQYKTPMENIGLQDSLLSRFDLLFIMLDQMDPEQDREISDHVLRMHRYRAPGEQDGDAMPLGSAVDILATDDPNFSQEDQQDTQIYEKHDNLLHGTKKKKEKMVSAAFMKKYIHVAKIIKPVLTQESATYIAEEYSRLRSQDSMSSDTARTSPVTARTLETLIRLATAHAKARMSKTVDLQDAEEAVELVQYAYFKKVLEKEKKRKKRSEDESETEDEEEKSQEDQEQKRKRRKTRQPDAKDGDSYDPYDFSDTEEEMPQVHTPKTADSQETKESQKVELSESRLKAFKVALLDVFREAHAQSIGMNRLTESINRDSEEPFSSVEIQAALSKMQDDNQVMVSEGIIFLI
UniProt Q96HR3: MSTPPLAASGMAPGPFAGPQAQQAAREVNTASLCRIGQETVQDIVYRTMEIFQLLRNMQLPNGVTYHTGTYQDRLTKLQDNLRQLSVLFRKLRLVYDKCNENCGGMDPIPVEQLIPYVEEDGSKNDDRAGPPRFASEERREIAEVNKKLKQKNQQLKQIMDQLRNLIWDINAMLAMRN
UniProt Q96RQ3: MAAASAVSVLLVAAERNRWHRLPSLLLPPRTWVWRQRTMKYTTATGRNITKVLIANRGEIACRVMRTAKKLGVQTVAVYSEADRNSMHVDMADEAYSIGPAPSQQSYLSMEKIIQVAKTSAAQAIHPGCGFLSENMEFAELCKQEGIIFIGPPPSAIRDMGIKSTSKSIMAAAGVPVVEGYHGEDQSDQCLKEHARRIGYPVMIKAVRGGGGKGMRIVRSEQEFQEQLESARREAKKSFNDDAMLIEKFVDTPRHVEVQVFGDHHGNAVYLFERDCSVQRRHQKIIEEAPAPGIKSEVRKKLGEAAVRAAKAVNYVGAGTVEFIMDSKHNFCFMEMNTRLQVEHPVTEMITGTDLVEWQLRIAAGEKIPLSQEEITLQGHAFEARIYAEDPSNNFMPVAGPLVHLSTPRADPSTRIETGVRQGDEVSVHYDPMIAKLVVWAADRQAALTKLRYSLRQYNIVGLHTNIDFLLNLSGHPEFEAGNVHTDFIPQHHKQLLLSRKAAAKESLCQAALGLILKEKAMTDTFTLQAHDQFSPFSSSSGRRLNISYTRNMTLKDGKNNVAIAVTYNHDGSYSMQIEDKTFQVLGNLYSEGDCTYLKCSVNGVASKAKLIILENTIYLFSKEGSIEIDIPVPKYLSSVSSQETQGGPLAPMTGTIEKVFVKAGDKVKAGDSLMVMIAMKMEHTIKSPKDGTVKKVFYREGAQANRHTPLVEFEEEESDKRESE
UniProt Q9UQ53: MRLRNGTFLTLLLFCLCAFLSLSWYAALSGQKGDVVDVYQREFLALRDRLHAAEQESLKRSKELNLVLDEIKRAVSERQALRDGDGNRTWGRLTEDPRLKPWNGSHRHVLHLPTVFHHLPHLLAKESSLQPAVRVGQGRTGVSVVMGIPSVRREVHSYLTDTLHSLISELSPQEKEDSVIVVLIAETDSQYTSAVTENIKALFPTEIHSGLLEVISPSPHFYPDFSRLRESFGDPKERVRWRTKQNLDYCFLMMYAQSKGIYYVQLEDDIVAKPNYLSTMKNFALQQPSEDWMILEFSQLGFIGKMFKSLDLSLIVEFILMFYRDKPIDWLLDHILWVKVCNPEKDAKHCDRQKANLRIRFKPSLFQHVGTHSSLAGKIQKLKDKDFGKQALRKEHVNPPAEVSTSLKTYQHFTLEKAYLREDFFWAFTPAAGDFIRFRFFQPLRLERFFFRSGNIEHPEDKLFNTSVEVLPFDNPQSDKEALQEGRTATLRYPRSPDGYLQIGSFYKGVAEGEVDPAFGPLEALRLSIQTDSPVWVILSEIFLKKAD
UniProt O60244: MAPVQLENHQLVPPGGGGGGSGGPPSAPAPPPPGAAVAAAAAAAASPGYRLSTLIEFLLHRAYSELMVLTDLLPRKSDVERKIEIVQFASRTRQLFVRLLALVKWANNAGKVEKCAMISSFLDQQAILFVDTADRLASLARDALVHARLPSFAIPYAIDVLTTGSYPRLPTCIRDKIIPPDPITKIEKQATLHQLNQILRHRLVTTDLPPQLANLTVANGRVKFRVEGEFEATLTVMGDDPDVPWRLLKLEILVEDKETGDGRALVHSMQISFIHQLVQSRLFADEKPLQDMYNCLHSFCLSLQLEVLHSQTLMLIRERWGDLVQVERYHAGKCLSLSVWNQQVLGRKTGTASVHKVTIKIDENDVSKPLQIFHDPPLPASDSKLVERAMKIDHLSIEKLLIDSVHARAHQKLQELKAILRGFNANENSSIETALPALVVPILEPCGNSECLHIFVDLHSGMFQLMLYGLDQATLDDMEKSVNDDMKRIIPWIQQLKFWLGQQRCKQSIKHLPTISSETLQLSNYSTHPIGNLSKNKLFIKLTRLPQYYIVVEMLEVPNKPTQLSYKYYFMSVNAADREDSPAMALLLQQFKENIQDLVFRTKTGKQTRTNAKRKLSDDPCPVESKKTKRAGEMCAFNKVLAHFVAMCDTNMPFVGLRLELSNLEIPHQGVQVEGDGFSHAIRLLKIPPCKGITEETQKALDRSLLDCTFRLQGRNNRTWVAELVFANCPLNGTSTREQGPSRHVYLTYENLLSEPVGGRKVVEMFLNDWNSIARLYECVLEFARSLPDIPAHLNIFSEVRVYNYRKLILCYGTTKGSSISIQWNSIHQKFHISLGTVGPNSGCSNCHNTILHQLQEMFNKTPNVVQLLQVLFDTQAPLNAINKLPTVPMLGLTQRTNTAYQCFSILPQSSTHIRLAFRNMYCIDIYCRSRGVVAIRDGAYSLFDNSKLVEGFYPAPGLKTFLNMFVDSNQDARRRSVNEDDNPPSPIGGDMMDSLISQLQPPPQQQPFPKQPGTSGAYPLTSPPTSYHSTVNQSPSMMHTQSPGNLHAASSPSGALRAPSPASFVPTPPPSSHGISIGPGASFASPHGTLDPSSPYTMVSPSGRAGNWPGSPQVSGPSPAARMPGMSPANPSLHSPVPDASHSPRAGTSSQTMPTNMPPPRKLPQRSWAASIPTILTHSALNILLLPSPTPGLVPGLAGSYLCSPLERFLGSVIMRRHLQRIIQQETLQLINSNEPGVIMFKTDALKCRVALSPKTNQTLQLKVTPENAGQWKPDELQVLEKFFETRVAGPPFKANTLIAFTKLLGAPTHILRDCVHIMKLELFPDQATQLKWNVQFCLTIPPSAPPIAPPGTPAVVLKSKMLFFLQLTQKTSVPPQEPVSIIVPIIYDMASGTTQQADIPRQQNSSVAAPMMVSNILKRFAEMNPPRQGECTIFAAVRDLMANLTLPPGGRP
UniProt Q9NR56: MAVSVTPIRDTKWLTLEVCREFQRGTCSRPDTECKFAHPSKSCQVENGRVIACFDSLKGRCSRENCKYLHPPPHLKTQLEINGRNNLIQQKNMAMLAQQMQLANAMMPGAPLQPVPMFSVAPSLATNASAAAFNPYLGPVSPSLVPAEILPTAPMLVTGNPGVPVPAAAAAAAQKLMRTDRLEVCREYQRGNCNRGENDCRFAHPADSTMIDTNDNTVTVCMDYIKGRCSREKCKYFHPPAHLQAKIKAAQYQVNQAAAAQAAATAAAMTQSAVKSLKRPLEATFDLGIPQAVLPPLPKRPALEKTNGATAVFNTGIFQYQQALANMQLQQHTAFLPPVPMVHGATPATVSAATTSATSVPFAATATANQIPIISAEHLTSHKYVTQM
UniProt Q14814: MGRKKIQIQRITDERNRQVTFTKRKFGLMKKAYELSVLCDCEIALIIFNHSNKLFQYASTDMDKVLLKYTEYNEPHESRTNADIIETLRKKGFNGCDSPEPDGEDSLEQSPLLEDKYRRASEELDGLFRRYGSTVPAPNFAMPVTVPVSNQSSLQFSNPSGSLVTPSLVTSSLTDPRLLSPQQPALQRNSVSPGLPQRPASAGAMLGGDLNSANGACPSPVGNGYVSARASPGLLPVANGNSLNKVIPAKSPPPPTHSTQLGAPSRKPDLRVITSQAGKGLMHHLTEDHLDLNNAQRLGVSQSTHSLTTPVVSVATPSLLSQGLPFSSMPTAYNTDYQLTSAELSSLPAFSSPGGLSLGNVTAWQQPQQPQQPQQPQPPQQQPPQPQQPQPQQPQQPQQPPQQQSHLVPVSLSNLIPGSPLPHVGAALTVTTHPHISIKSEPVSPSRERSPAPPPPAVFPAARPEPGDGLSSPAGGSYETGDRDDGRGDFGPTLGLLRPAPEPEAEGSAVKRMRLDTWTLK
UniProt Q8N6Q8: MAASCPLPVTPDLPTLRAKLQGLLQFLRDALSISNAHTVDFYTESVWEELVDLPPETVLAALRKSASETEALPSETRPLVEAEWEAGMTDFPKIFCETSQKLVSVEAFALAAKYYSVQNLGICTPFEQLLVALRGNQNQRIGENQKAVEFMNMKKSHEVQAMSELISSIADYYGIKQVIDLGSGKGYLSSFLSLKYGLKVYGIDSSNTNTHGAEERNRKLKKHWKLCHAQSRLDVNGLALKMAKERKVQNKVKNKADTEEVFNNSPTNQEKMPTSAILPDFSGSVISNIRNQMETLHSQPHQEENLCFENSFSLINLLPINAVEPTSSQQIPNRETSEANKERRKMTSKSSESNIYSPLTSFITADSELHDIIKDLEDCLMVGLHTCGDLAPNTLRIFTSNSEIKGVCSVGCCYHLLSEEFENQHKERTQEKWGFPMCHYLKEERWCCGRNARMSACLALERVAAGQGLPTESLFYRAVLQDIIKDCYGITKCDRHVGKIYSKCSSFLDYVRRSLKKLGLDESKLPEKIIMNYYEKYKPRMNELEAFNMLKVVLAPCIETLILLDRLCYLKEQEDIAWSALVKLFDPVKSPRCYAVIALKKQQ

Compound in one test: Cc1ccc(C(=O)N(CCCN)[C@@H](c2nc3cc(Cl)ccc3c(=O)n2Cc2ccccc2)C(C)C)cc1 [ispinesib]
Put plainly: log2 fold change, soluble protein after heating vs DMSO (PISA); higher = thermal stabilisation; K562 cells, 10 uM, 30 min; active = over 0.2 and 3.5 SD of the protein, either way, in both replicates (recomputed). A digest of the protocol:
(§1)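 For each measurement, 10 μM compound was applied for 30 min to K562 cells at 2×10^6 cells/mL. Aliquots were heated for 3 min across 48°C-58°C, pooled, and extracted in PBS with 0.5% NP-40 at 4°C; the supernatant after 21,000xg for 90 min was soluble protein. This was quantified by TMTpro 16plex LC-MS/MS with channel sums equalised, and thermal stability was reported relative to control samples from duplicates, on a log2 fold-change scale.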
Turning to MIB1 (UniProt Q86YT6), the log2 fold change was inactive: -0.129. In the case of MCM2 (UniProt P49736), the log2 fold change was inactive: 0.004. The same measure, in the same setting: next, MESD (UniProt Q14696): inactive: 0.016; MCRIP1 (UniProt I3L4Q0): inactive: -0.066; MDN1 (UniProt Q9NU22): inactive: -0.117. Same read-out and setting: next, MED23 (UniProt Q9ULK4): inactive: -0.057; METTL7A (UniProt Q9H8H3): inactive: 0.071; MCM5 (UniProt P33992): inactive: 0.056.

With METTL5 (UniProt Q9NRN9), the log2 fold change is inactive: 0.012.

For the target MECR (UniProt Q9BV79), the log2 fold change was inactive: 0.002. For the target METTL2B (UniProt Q6P1Q9), the log2 fold change is inactive: -0.164. As for MBOAT1 (UniProt Q6ZNC8), the log2 fold change is inactive: -0.423.

Turning to MEF2C isoform 5 (UniProt Q06413), the log2 fold change is inactive: 0.012. In the case of MAT2B (UniProt Q9NZL9), the log2 fold change was inactive: 0. METTL21A (UniProt Q8WXB1): the log2 fold change is inactive: 0.062.

As for MCM3 isoform 2 (UniProt P25205), the log2 fold change is inactive: 0.048. Still for that read-out and setting: next, MCCC2 (UniProt Q9HCC0): inactive: 0.047; MED30 (UniProt Q96HR3): inactive: 0.044; MED18 (UniProt Q9BUE0): inactive: 0.01.

As for MFAP1 (UniProt P55081), the log2 fold change was inactive: -0.009. Same read-out and setting: next, MCCC1 (UniProt Q96RQ3): inactive: 0.021; MGAT4B isoform 3 (UniProt Q9UQ53): inactive: 0.042; MED14 (UniProt O60244): inactive: -0.165. With MFSD10 (UniProt Q14728), the log2 fold change is inactive: -0.01. On the same count and under the same terms, next, METAP1 (UniProt P53582): inactive: 0.062; MGST3 (UniProt O14880): inactive: 0.03; METAP2 (UniProt P50579): inactive: 0.018. Regarding MCRIP2 (UniProt Q9BUT9), the log2 fold change was inactive: 0.164. Still for that read-out and setting: next, MBNL1 (UniProt Q9NR56): inactive: -0.018. Take MEAF6 isoform 3 (UniProt Q9HAF1): the log2 fold change was inactive: 0.025.

For the target MBD3 (UniProt O95983), the log2 fold change was inactive: -0.129. As for MED15 (UniProt Q96RN5), the log2 fold change is inactive: -0.052. Same read-out and setting: next, MED24 (UniProt O75448): inactive: -0.143; MEF2D (UniProt Q14814): inactive: -0.09. Regarding MED10 (UniProt Q9BTT4), the log2 fold change is inactive: 0.064.

Compound in another test: Cc1ccc(NC(=O)c2ccc(CN3CC[C@H](N(C)C)C3)c(C(F)(F)F)c2)cc1Nc1nccc(-c2cncnc2)n1 [bafetinib]
The test is described as above. A digest of the protocol: as §1
Turning to MIB1 (UniProt Q86YT6), the log2 fold change was inactive: 0.026. Regarding MCM2 (UniProt P49736), the log2 fold change is inactive: -0.02. In the case of MESD (UniProt Q14696), the log2 fold change is inactive: -0.062. Turning to MCRIP1 (UniProt I3L4Q0), the log2 fold change is inactive: -0.067. Same read-out and setting: next, MDN1 (UniProt Q9NU22): inactive: -0.094; MED23 (UniProt Q9ULK4): inactive: 0.046; METTL7A (UniProt Q9H8H3): inactive: -0.016. Same read-out and setting: next, MCM5 (UniProt P33992): inactive: 0.011; METTL5 (UniProt Q9NRN9): inactive: -0.034; MECR (UniProt Q9BV79): inactive: 0.002. On to MBOAT1 (UniProt Q6ZNC8), for which the log2 fold change was inactive: -0.104. On the same count and under the same terms, next, MEF2C isoform 5 (UniProt Q06413): inactive: 0.01. Turning to MAT2B (UniProt Q9NZL9), the log2 fold change was inactive: -0.041. As for METTL21A (UniProt Q8WXB1), the log2 fold change is inactive: -0.049. On the same count and under the same terms, next, MERTK (UniProt Q12866): inactive: -0.145. Same read-out and setting: next, MCM3 isoform 2 (UniProt P25205): inactive: -0.014. MCCC2 (UniProt Q9HCC0): the log2 fold change was inactive: -0.047. The same measure, in the same setting: next, MED30 (UniProt Q96HR3): inactive: -0.043; METTL6 (UniProt Q8TCB7): inactive: 0.057. With MED18 (UniProt Q9BUE0), the log2 fold change was inactive: -0.085. Same read-out and setting: next, MFAP1 (UniProt P55081): inactive: -0.066; MCCC1 (UniProt Q96RQ3): inactive: 0.147. In the case of MGAT4B isoform 3 (UniProt Q9UQ53), the log2 fold change was inactive: -0.011.

Consider MED14 (UniProt O60244), for which the log2 fold change is inactive: -0.007. On the same count and under the same terms, next, MFSD10 (UniProt Q14728): inactive: 0.041; METAP1 (UniProt P53582): inactive: 0.019. For MGST3 (UniProt O14880), the log2 fold change was inactive: -0.085. With METAP2 (UniProt P50579), the log2 fold change was inactive: -0.087. In the case of MCRIP2 (UniProt Q9BUT9), the log2 fold change is inactive: 0.107.

In the case of MBNL1 (UniProt Q9NR56), the log2 fold change is inactive: -0.081.

As for MEAF6 isoform 3 (UniProt Q9HAF1), the log2 fold change was inactive: 0.009.

Consider MBD3 (UniProt O95983), for which the log2 fold change was inactive: -0.025.

Turning to MED15 (UniProt Q96RN5), the log2 fold change was inactive: 0.026. With MED24 (UniProt O75448), the log2 fold change is inactive: 0.02. MEF2D (UniProt Q14814): the log2 fold change was inactive: -0.052. As for METTL25 (UniProt Q8N6Q8), the log2 fold change was inactive: -0.054.

The values are drawn from the supplement of paper PMC10849652.
